Results from PubChem BioAssay AID1347076 (National Center for Advancing Translational Sciences (NCATS), 2019).
Hit rate of the full screen: of about 400,000 compounds, about 13,000 (3.2%) were called active. Inconclusive results, whose numbers are uncertain, are shown with a selection of clear calls. Calls come from the whole dose curve; as a rule, active = well fitted cell-killing curve with a large enough effect; inconclusive = small, poorly fitted or top-dose-only effect, or effect the other way; inactive = flat fitted curve, though single readings scatter. Where the call is inconclusive, the potency comes from a doubtful curve fit.

Assay: qHTS assay for MDR1-selective chemotherapeutics: Primary screen using the drug-selected MDR subline cells KB-V1; note: nearly all actives have a fitted effect of over 60% in size
Settings: KB-V1 MDR cells viability, CellTiter-Glo, 72 h; activity change, negative = cytotoxicity: at 46.1 µM (top of the series)
Procedure, shortened: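 KB-V1, DMEM (no phenol red) + 10% FBS; cpd pin-transferred, titration series; 72 h, 37 degrees C; CellTiter-Glo, luminescence. Data normalized, curve-fit.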
% is set by controls: 0 for no effect and ±100 for the full control effect; potency is the fitted concentration of half-maximal effect.

Row | SMILES | Potency | activity change, negative = cytotoxicity
1 | COc1ccc(OC)c(/C=C/C(=O)N(C)CC(=O)Nc2ccc(C)cc2)c1 | inconclusive: 7.31 µM [cytotoxic, partial curve, poor fit] | –
2 | CC(C)(C)CN1CCN(Cc2nc(-c3ccc(F)cc3)cs2)CC1CCO (stereo not given) | inconclusive: 29.1 µM [cytotoxic, partial curve, poor fit] | –
3 | Cc1cc(/C=N/NC(N)=O)c(C)n1-c1ccc(F)cc1 | inconclusive: 18.4 µM [cytotoxic, single point] | –
4 | COc1ccc(-c2cnnn2-c2ccc(NC(=O)/C=C/c3ccc(OC)c(OC)c3)cc2)cc1 | – | inactive: -19.2%
5 | Cc1ccc(OCCn2c(CCNC(=O)C(C)C)nc3ccccc32)cc1 | inconclusive: 20.6 µM [cytotoxic, single point] | –
6 | O=C(O)c1cccc(NC(=O)c2ccccc2)c1 | inconclusive: 13 µM [cytotoxic, partial curve, poor fit] | –
7 | COc1ccc(C(=O)N2CCC(C(=O)Nc3ccc(Cl)cc3)CC2)cc1 | – | inactive: -15.3%
8 | NC(=O)c1nnn(-c2ccccc2)c1N | – | inactive: -15.3%
9 | O=C(c1cccc(-c2ccccc2)c1)N1CC[C@@H](N2CCC(O)CC2)[C@H](O)C1 | – | inactive: 11.5%
10 | CCOc1ccccc1NC(=O)C(OC(=O)c1ccc(O)cc1)c1ccccc1 (stereo not given) | active: 14.6 µM | –
11 | COc1cccc(O)c1CN1CCC(C(=O)Nc2ccc(-c3cccc(C)c3)cc2)CC1 | inconclusive: 29.1 µM [cytotoxic, single point] | –
12 | Cc1ccc(S(=O)(=O)NCC(=O)NC2CC2)cc1 | inconclusive: 11.6 µM [rising, partial curve, poor fit] | –
13 | COc1cccc(CNc2nc3ccccc3n2CCN2CCCCC2)c1 | inconclusive: 11.6 µM [cytotoxic, partial curve, poor fit] | –
14 | COc1cc(/C=N/NC(=O)CNC(=O)c2cccs2)ccc1O | inconclusive: 8.2 µM [rising, partial curve, poor fit] | –
15 | O=c1cc(O)nc(-c2ccc(Cl)cc2)s1 | inconclusive: 9.2 µM [rising, partial curve, poor fit] | –
16 | Cc1oncc1C(=O)Nc1ccc2ccccc2c1 | inconclusive: 29.1 µM [rising, single point] | –
17 | COCC(=O)Nc1c(C(=O)Nc2ccc3c(c2)OCCO3)oc2ccccc12 | inconclusive: 7.31 µM [cytotoxic, partial curve, poor fit] | –
18 | COc1cccc(CSc2nc3n(n2)C(CC(C)C)C(C(=O)Nc2ccccc2OC)=C(C)N3)c1 (stereo not given) | – | inactive: -11.5%
19 | CCOC(=O)Cc1csc(NC(=O)Nc2cccc(OC)c2)n1 | – | inconclusive: 9.55%
20 | NC(=S)N/N=C/c1ccc2ccccc2c1 | inconclusive: 2.91 µM [cytotoxic, partial curve, poor fit] | –
21 | CCN(CC)c1nc(NNC(=O)c2ccccc2)nc(N(CC)CC)n1 | – | inactive: 10.7%
22 | CN(C)CCN1CCN(C2CN(Cc3cn(Cc4ccc(F)cc4)nn3)S(=O)(=O)C2)CC1 (stereo not given) | – | inactive: 1.78%
23 | CCSc1oc(-c2ccco2)nc1S(=O)(=O)c1ccccc1 | inconclusive: 14.6 µM [cytotoxic, single point] | –
24 | Nc1c(C(=O)c2ccc(Cl)cc2)sc2c1c(=O)[nH]c(=O)n2-c1ccccc1 | – | inactive: 6.88%

Four of the compounds above, with tabs:
Row	SMILES	Potency	activity change, negative = cytotoxicity
1	COc1ccc(OC)c(/C=C/C(=O)N(C)CC(=O)Nc2ccc(C)cc2)c1	inconclusive: 7.31 µM [cytotoxic, partial curve, poor fit]	–
2	CC(C)(C)CN1CCN(Cc2nc(-c3ccc(F)cc3)cs2)CC1CCO (stereo not given)	inconclusive: 29.1 µM [cytotoxic, partial curve, poor fit]	–
3	Cc1cc(/C=N/NC(N)=O)c(C)n1-c1ccc(F)cc1	inconclusive: 18.4 µM [cytotoxic, single point]	–
4	COc1ccc(-c2cnnn2-c2ccc(NC(=O)/C=C/c3ccc(OC)c(OC)c3)cc2)cc1	–	inactive: -19.2%

Following part

Row | SMILES | Potency | activity change, negative = cytotoxicity
25 | CCn1c(-c2cccc(Cl)c2)n[nH]c1=S | inconclusive: 29.1 µM [cytotoxic, single point] | –
26 | Cc1cc(NS(=O)(=O)c2ccc(NC(=O)c3cnc(Cl)c(Cl)c3)cc2)nc(C)n1 | inconclusive: 29.1 µM [rising, single point] | –
27 | CC1CCCCC1NC(=O)c1ccc(CSc2nc3ccncc3[nH]2)cc1 (stereo not given) | inconclusive: 3.26 µM [rising, full curve, poor fit] | –
28 | O=C(CN1CCOCC1)Nc1ncc(Cc2cccc3ccccc23)s1 | active: 13 µM | –
29 | CCCCN(C(=O)c1ccc(C#N)cc1)c1c(N)n(CCC)c(=O)[nH]c1=O | inconclusive: 20.6 µM [rising, partial curve] | –
30 | CCOC(=O)C1(CCOc2ccccc2)CCN(Cc2ccc(C#CCCO)cc2)CC1 | inconclusive: 29.1 µM [cytotoxic, partial curve, poor fit] | –
31 | Nn1c(SCC(=O)N2CCN(S(=O)(=O)c3ccc(Cl)cc3)CC2)nnc1-c1cccs1 | – | inactive: -2.9%
32 | O=C(CN1c2cccc3cccc(c23)S1(=O)=O)Nc1ccc(S(=O)(=O)N2CCOCC2)cc1 | inconclusive: 14.6 µM [cytotoxic, partial curve] | –
33 | CCn1nnc(NC(=O)C(C)Oc2ccc(Cl)cc2Cl)n1 (stereo not given) | active: 18.4 µM | –
34 | O=C(c1ccccc1)C(CN1CCCCC1)c1ccccc1 (stereo not given) | active: 14.6 µM | –
35 | COC(=O)c1cc(Br)ccc1N(Cc1cc(OC)cc(OC)c1)S(C)(=O)=O | inconclusive: 5.8 µM [cytotoxic, partial curve] | –
36 | Cc1ccc(/C(=C\CN2CCCC2)c2ccccn2)cc1 | inconclusive: 23.1 µM [cytotoxic, single point] | –
37 | O=C1COc2ccc(S(=O)(=O)CCC(=O)N3CCN(c4ccccc4)CC3)cc2N1 | inconclusive: 20.6 µM [rising, single point] | –
38 | COc1ccc(N2CCN(C(=O)COC(=O)CC(NC(N)=O)c3ccc(Cl)cc3)CC2)cc1 (stereo not given) | inconclusive: 29.1 µM [rising, single point] | –
39 | CCC(C)[C@H](NC(=O)N1CCCCCC1)C(=O)OC (stereo not given in full) | – | inactive: 8.82%
40 | CCC(=O)c1ccccc1OCCN1CCN(Cc2ccccc2)CC1 | inconclusive: 6.51 µM [cytotoxic, partial curve] | –
41 | C[C@H]1CN([C@@H](C)CO)C(=O)c2cc(-c3cccnc3)cnc2O[C@H]1CN(C)Cc1ccc(Oc2ccccc2)cc1 | inconclusive: 18.4 µM [cytotoxic, partial curve, poor fit] | –
42 | CC(=O)c1ccc(S(=O)(=O)N2CCN(CC(=O)Nc3ccccc3C(=O)NC3CC3)CC2)cc1 | – | inactive: 6.09%
43 | Cc1ccc(NC(=O)CCN2CCN(CCO)CC2)cc1C | inconclusive: 10.3 µM [rising, partial curve, poor fit] | –
44 | O=C(CC1SC(N2CCCCC2)=NC1=O)Nc1cccc(C(=O)O)c1 (stereo not given) | inconclusive: 16.4 µM [rising, single point] | –
45 | COc1ccc(N(CC(=O)Nc2cc(C)on2)S(=O)(=O)c2cc(C)ccc2C)cc1 | active: 5.8 µM | –
46 | COc1ccc(N(C)S(=O)(=O)c2cccc(C(=O)NCC3CCCCC3)c2)cc1 | inconclusive: 8.2 µM [cytotoxic, partial curve] | –
47 | O=C(NCc1ccco1)C1(c2ccccc2)CCCC1 | inconclusive: 18.4 µM [cytotoxic, single point] | –
48 | Cc1ccc(NC(=O)CN2CCSc3ccc(S(=O)(=O)N4CCCC4)cc32)cc1 | active: 11.6 µM | –

Row | SMILES | Potency | activity change, negative = cytotoxicity
49 | Cc1cc(C)cc(NC(=S)NCc2cccn2C)c1 | inconclusive: 18.4 µM [cytotoxic, single point] | –
50 | Cc1cc(C)cc(OCC(O)CN2C(=O)NC(C)(C)C2=O)c1 (stereo not given) | – | inactive: 14.5%
51 | COc1ccccc1CNC(=O)C1=CCN(S(=O)(=O)c2ccc(C)cc2)CC1 | inconclusive: 2.91 µM [cytotoxic, full curve] | –
52 | O=C(CNCc1ccccc1Cl)Nc1cc(S(=O)(=O)N2CCOCC2)ccc1Cl | – | inactive: -21.3%
53 | CN(CC(=O)Nc1ccccc1C(F)(F)F)C(=O)c1cc(-c2cccs2)nn1-c1ccccc1 | inconclusive: 10.3 µM [cytotoxic, partial curve] | –
54 | O=S1(=O)N[C@H](Cc2ccccc2)COc2cccc(N3CCN(Cc4ccccc4F)CC3)c21 | – | inactive: 12.3%
55 | CCOc1ccccc1Nc1nnc(-c2cc3cc(OC)ccc3oc2=O)s1 | inconclusive: 16.4 µM [cytotoxic, single point] | –
56 | Cc1ccc2nc(-c3ccc(NC(=O)CN4CCN(c5ccccn5)CC4)cc3)sc2c1 | – | inactive: -29%
57 | CCOc1ccc(NC(=O)CC2C(=O)N(C)C(=S)N2CCCc2ccccc2)cc1 (stereo not given) | inconclusive: 20.6 µM [cytotoxic, single point] | –
58 | Cc1nc(-c2ccc(S(=O)(=O)N3CCN(CCc4ccccc4)CC3)s2)cs1 | inconclusive: 0.517 µM [rising, partial curve, poor fit] | –
59 | COc1ccc(S(=O)(=O)N2CCN(S(=O)(=O)c3ccc4c(c3)OCCO4)CC2)cc1 | – | inactive: 14.7%
60 | Cn1c(=O)[nH]c(NCCc2ccc(O)cc2)c([N+](=O)[O-])c1=O | – | inactive: -1.08%
61 | CN(Cc1ccccc1)C(=O)CN1CCN(S(=O)(=O)c2ccc(Cl)c(Cl)c2)CC1 | – | inactive: -2.93%
62 | C=CCNS(=O)(=O)c1nc(C)c(Cl)c(C)c1C#N | inconclusive: 18.4 µM [cytotoxic, partial curve, poor fit] | –
63 | COc1ccc(C)cc1-n1c(=O)c2ccccc2c2ccccc2c1=O | – | inactive: 2.47%
64 | Cc1ccc(NC(=O)CSC2=NN3CCCC(=O)N=C3S2)cc1Cl | – | inactive: 1.29%
65 | O=C(NCC1CCCO1)c1ccc(Oc2ccc([N+](=O)[O-])cc2Cl)cc1 (stereo not given) | inconclusive: 25.9 µM [rising, single point] | –
66 | CCOC(=O)c1cccc(NC(=O)CSc2nc3cccnc3n2C)c1 | inconclusive: 18.4 µM [cytotoxic, partial curve, poor fit] | –
67 | CC(C)NC(=O)/C(C#N)=C/c1cccc(NC(=O)c2ccccc2Cl)c1 | inconclusive: 18.4 µM [cytotoxic, single point] | –
68 | CC1=CC(C)(C(Cl)Cl)C(C)=CC1=O (stereo not given) | – | inconclusive: -65.4%
69 | CCOc1ccc(S(=O)(=O)N2CCOCC2)cc1NC(=O)CN1C(=O)NC(CC)(c2ccccc2)C1=O (stereo not given) | – | inactive: -6.41%
70 | Cc1ccc(OCC(=O)Nc2ccc3c(c2)C(=O)NC3=O)cc1 | inconclusive: 9.2 µM [rising, partial curve] | –
